Record: PubChem BioAssay AID1259425 (University of Nebraska Medical Center, 2018)
The whole screen tested about 14,000 reagents; shown is an unselected part. Not stated in the record: the time to read-out.

- Aim: 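Seek colon cancer weak points whose silencing resembles KSR1 loss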 (primary screen)
- System: HCT116 human colon cancer cells
- Knock-down reagent: siRNA pool against human genes, 50 nM siRNA
- Read-out: 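After 50 nM siRNA pool, branched-DNA assay measures six marker transcripts per well, minus blank, normalised to the geometric mean of two housekeeping transcripts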
- Scale: BNIP3L mRNA: higher = more BNIP3L transcript after knockdown; NDRG1 mRNA: higher = more NDRG1 transcript after knockdown; BNIP3 mRNA: higher = more BNIP3 transcript after knockdown; ALDOC mRNA: higher = more ALDOC transcript after knockdown; ACSL5 mRNA: higher = more ACSL5 transcript after knockdown

| target gene | BNIP3L mRNA, set 1 | NDRG1 mRNA, set 1 | BNIP3 mRNA, set 1 | ALDOC mRNA, set 1 | ACSL5 mRNA, set 1 |
| --- | --- | --- | --- | --- | --- |
| ZC3H3 | 0.166 | 0.232 | 0.402 | 0.0186 | 0.147 |
| CHSY1 | 0.0661 | 0.209 | 0.286 | 0.0513 | 0.0905 |
| PRKAG2 | 0.154 | 0.18 | 0.281 | 0.035 | 0.0781 |
| LRFN2 | 0.175 | 0.261 | 0.266 | 0.0698 | 0.391 |
| TLR1 | 0.0819 | 0.0948 | 0.528 | -0.000338 | 0.293 |
| ABLIM1 | 0.112 | 0.143 | 0.278 | 0.0477 | 0.207 |
| PHF5A | 0.124 | 0.67 | 0.205 | 0.0725 | 0.117 |
| MIPEP | 0.0629 | 0.0907 | 0.222 | 0.0233 | 0.163 |
| OAZ1 | 0.108 | 0.113 | 0.244 | 0.0208 | 0.0854 |
| BZW2 | 0.114 | 0.0871 | 0.225 | 0.0378 | 0.26 |
| RTP4 | 0.106 | 0.101 | 0.282 | 0.0156 | 0.195 |

The list goes on, starting with the last 2 of the part before.
| target gene | BNIP3L mRNA, set 1 | NDRG1 mRNA, set 1 | BNIP3 mRNA, set 1 | ALDOC mRNA, set 1 | ACSL5 mRNA, set 1 |
| --- | --- | --- | --- | --- | --- |
| BZW2 | 0.114 | 0.0871 | 0.225 | 0.0378 | 0.26 |
| RTP4 | 0.106 | 0.101 | 0.282 | 0.0156 | 0.195 |
| VPS35L | 0.0868 | 0.24 | 0.453 | 0.054 | 0.214 |
| FAM107A | 0.0793 | 0.329 | 0.424 | 0.0261 | 0.201 |
| CRISP3 | 0.126 | 0.194 | 0.197 | 0.0113 | 0.113 |
| NAA50 | 0.19 | 0.684 | 0.275 | 0.0552 | 0.299 |
| MMP1 | 0.112 | 0.225 | 0.257 | 0.0308 | 0.18 |
| TMLHE | 0.101 | 0.426 | 0.258 | 0.0241 | 0.206 |
| SASH1 | 0.109 | 0.181 | 0.317 | 0.00604 | 0.074 |
| NFS1 | 0.185 | 0.145 | 0.283 | 0.0478 | 0.141 |
| CFAP74 | 0.106 | 0.248 | 0.169 | 0.0338 | 0.274 |
